In the supplement of paper PMC4604168 (melanoma cell lines):
Some of the results follow. Repeats are few or missing, and single values can be far off.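 Imaging used 1,536-well plates; nuclei positive for cleaved PARP by antibody were divided by total DNA-stained nuclei to yield the apoptosis fraction. Doses for screening kept most cells viable, and cell lines differ markedly in resting and induced cleaved-PARP levels.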

Experiments:
Assay in all cases: cleaved PARP positive nuclei fraction relative to DMSO control; melanoma cells; higher = more apoptosis
Details in all cases: library dose: low library concentration; 72 h
COLO792 = test system: COLO792
COLO800 = test system: COLO800
COLO829 = test system: COLO829
G361 = test system: G361
IPC-298 = test system: IPC-298
IST-MEL1 = test system: IST-MEL1
LB2518-MEL = test system: LB2518-MEL
LOXIMVI = test system: LOXIMVI

Row | Structure (SMILES) | cleaved PARP positive nuclei fraction (COLO792) [%] | cleaved PARP positive nuclei fraction (COLO800) [%] | cleaved PARP positive nuclei fraction (COLO829) [%] | cleaved PARP positive nuclei fraction (G361) [%] | cleaved PARP positive nuclei fraction (IPC-298) [%] | cleaved PARP positive nuclei fraction (IST-MEL1) [%] | cleaved PARP positive nuclei fraction (LB2518-MEL) [%] | cleaved PARP positive nuclei fraction (LOXIMVI) [%]
1 | CS(=O)(=O)c1ccc(C(=O)Nc2ccc(Cl)c(-c3ccccn3)c2)c(Cl)c1 [vismodegib] + COc1ccc(-c2ccc3c(N4CCOCC4)nc(N4C[C@@H](C)O[C@@H](C)C4)nc3n2)cc1CO [KU0063794] (first compound 1 µM, partner dose 0.02 µM) | 140 | 199 | 187 | 47.7 | 211 | 146 | 155 | 83.5
2 | C[C@]1(O)C[C@@H](c2nc(-c3ccc4ccc(-c5ccccc5)nc4c3)c3c(N)nccn32)C1 + COc1ccc(COc2ccc(Cc3cnc(N)nc3N)cc2OC)cc1 [GW2580] (first compound 0.4 µM, partner dose 1 µM) | 141 | 64.1 | 127 | 92.4 | 96.6 | 64.7 | 34.1 | 135
3 | CN(c1ncccc1CNc1nc(Nc2ccc3c(c2)CC(=O)N3)ncc1C(F)(F)F)S(C)(=O)=O + Cn1cc(/C=C2\C(=O)Nc3cccnc32)c2ccccc21 [GW441756] (first compound 0.08 µM, partner dose 0.4 µM) | 123 | 160 | 128 | 44.9 | 97.3 | 217 | 43.2 | 87.8
4 | CN(c1ncccc1CNc1nc(Nc2ccc3c(c2)CC(=O)N3)ncc1C(F)(F)F)S(C)(=O)=O + Oc1nc(-c2ccc(C(F)(F)F)cc2)nc2c1CSCC2 [XAV939] (first compound 0.08 µM, partner dose 2 µM) | 136 | 66.3 | 78.8 | 89.5 | 45.8 | 169 | 68.3 | 51.1
5 | NC1(c2ccc(-c3nc4ccn5c(=O)[nH]nc5c4cc3-c3ccccc3)cc2)CCC1 + Cn1cc(/C=C2\C(=O)Nc3cccnc32)c2ccccc21 [GW441756] (first compound 0.4 µM, partner dose 0.4 µM) | 96.6 | 13.6 | 59.2 | 175 | 98.7 | 76.2 | 71.9 | 184
6 | C[C@]1(O)C[C@@H](c2nc(-c3ccc4ccc(-c5ccccc5)nc4c3)c3c(N)nccn32)C1 + O=C1NC(=O)/C(=C/c2ccc(-c3ccc(F)cc3O)o2)S1 [AS252424] (first compound 0.4 µM, partner dose 1 µM) | 39.1 | 121 | 163 | 162 | 101 | 118 | 74.2 | 72.5
7 | C[C@@H](N)c1ccc(C(=O)Nc2ccnc3[nH]ccc23)cc1 + Cc1cc([N+](=O)[O-])ccc1NS(=O)(=O)c1cc(Cl)ccc1Cl [FH535] (first compound 0.4 µM, partner dose 1 µM) | 108 | 88 | 49.5 | 112 | 150 | 194 | 74.1 | 125
8 | Cn1sc(=O)n(Cc2ccccc2)c1=O + O=C1NC(=O)/C(=C/c2ccc(-c3ccc(F)cc3O)o2)S1 [AS252424] (first compound 0.4 µM, partner dose 1 µM) | 146 | 42.8 | 88.8 | 193 | 358 | 58.8 | 64.6 | 50.3
9 | CC1(C)CCC(c2ccc(Cl)cc2)=C(CN2CCN(c3ccc(C(=O)NS(=O)(=O)c4ccc(N[C@H](CCN5CCOCC5)CSc5ccccc5)c(S(=O)(=O)C(F)(F)F)c4)cc3)CC2)C1 + COc1cc2ncnc(Nc3ccc(Oc4ccccc4)cc3)c2cc1OC [SrcI1] (first compound 0.4 µM, partner dose 2 µM) | 249 | 178 | 80.5 | 114 | 260 | 78 | 176 | 195
10 | Cn1sc(=O)n(Cc2ccccc2)c1=O + COc1ccc(-c2ccc3c(N4CCOCC4)nc(N4C[C@@H](C)O[C@@H](C)C4)nc3n2)cc1CO [KU0063794] (first compound 0.4 µM, partner dose 0.02 µM) | 130 | 64.5 | 137 | 70.7 | 62.6 | 96.5 | 75.1 | 53.2
11 | Cn1sc(=O)n(Cc2ccccc2)c1=O + COc1ccc2c(c1)CCC1C2CCC2(C)C(NCCCCCCN3C(=O)C=CC3=O)CCC12 [U73122] (first compound 0.4 µM, partner dose 0.4 µM) | 147 | 25.5 | 51.8 | 190 | 122 | 94.3 | 78 | 292
12 | CS(=O)(=O)c1ccc(C(=O)Nc2ccc(Cl)c(-c3ccccn3)c2)c(Cl)c1 [vismodegib] + N#Cc1c(O)c2c(-c3ccc(-c4ccccc4O)cc3)csc2[nH]c1=O [A769662] (first compound 1 µM, partner dose 2 µM) | 106 | 64.2 | 77.1 | 84.5 | 89.7 | 38.2 | 48.9 | 204
13 | CCCCCCCCc1ccc(CCC(N)(CO)CO)cc1 [fingolimod] + O=C(O)C(=O)Nc1sc2c(c1C(=O)O)CCNC2 [TCS401] (first compound 2 µM, partner dose 1.66667 µM) | 94.3 | 62.2 | 151 | 85 | 134 | 138 | 205 | 56.6
14 | CCN(CC)CCNC(=O)c1c(C)[nH]c(/C=C2\C(=O)Nc3ccc(F)cc32)c1C [sunitinib] + O=C1NC(=O)/C(=C/c2ccc(-c3ccc(F)cc3O)o2)S1 [AS252424] (first compound 0.4 µM, partner dose 1 µM) | 94.1 | 61.3 | 31.4 | 226 | 101 | 530 | 80.4 | 139
15 | NC(=O)c1ccc(N(C(N)=O)c2c(F)cccc2F)nc1-c1ccc(F)cc1F + COC(=O)c1sccc1S(=O)(=O)Nc1ccc(Nc2ccccc2)cc1OC [GSK0660] (first compound 0.4 µM, partner dose 1 µM) | 78.7 | 21.2 | 86.7 | 98 | 181 | 74.5 | 66.9 | 105
16 | NC1(c2ccc(-c3nc4ccn5c(=O)[nH]nc5c4cc3-c3ccccc3)cc2)CCC1 + CC(C)CCN1c2nc(Nc3cc(F)c(O)c(F)c3)ncc2N(C)C(=O)C1C [BID1870] (first compound 0.4 µM, partner dose 0.2 µM) | 96.2 | 139 | 134 | 136 | 150 | 22.1 | 80.5 | 70.9
17 | C[C@@H](N)c1ccc(C(=O)Nc2ccnc3[nH]ccc23)cc1 + COc1ccc(-c2ccc3c(N4CCOCC4)nc(N4C[C@@H](C)O[C@@H](C)C4)nc3n2)cc1CO [KU0063794] (first compound 0.4 µM, partner dose 0.02 µM) | 118 | 30.2 | 15.7 | 61.7 | 63.5 | 170 | 72.8 | 508
18 | COc1ccc(C2=N[C@@H](c3ccc(Cl)cc3)[C@@H](c3ccc(Cl)cc3)N2C(=O)N2CCNC(=O)C2)c(OC(C)C)c1 [Nutlin-3] + O=C(O)C(=O)Nc1sc2c(c1C(=O)O)CCNC2 [TCS401] (first compound 0.1 µM, partner dose 1.66667 µM) | 53.2 | 98 | 45.8 | 145 | 222 | 34.9 | 21.1 | 77.7
19 | CS(=O)(=O)c1ccc(C(=O)Nc2ccc(Cl)c(-c3ccccn3)c2)c(Cl)c1 [vismodegib] + CCCCCCCCCCCC1=C(O)C(=O)C=C(O)C1=O [Embelin] (first compound 1 µM, partner dose 1.2 µM) | 34.1 | 126 | 96.6 | 95.1 | 124 | 74.2 | 188 | 93.8
20 | CCN(CC)CCNC(=O)c1c(C)[nH]c(/C=C2\C(=O)Nc3ccc(F)cc32)c1C [sunitinib] + O=c1cc(-c2cccc3c2Sc2ccccc2S3)oc(N2CCOCC2)c1 [KU55933] (first compound 0.4 µM, partner dose 1 µM) | 160 | 51.5 | 101 | 75.9 | 146 | 140 | 152 | 115
21 | CCCCCCCCc1ccc(CCC(N)(CO)CO)cc1 [fingolimod] + N#Cc1c(O)c2c(-c3ccc(-c4ccccc4O)cc3)csc2[nH]c1=O [A769662] (first compound 2 µM, partner dose 2 µM) | 62 | 60.1 | 135 | 120 | 48.3 | 90.2 | 73.7 | 146
22 | CC(=O)O[C@@]12CO[C@@H]1C[C@H](O)[C@@]1(C)C(=O)[C@H](O)C3=C(C)[C@@H](OC(=O)[C@H](O)[C@@H](NC(=O)OC(C)(C)C)c4ccccc4)C[C@@](O)([C@@H](OC(=O)c4ccccc4)[C@H]21)C3(C)C [Docetaxel] + Cn1cc(/C=C2\C(=O)Nc3cccnc32)c2ccccc21 [GW441756] (first compound 0.0001 µM, partner dose 0.4 µM) | 526 | 298 | 118 | 1100 | 239 | 132 | 119 | 40.9

An excerpt of the results above, as a working copy:
Row | Structure (SMILES) | cleaved PARP positive nuclei fraction (COLO792) [%] | cleaved PARP positive nuclei fraction (COLO800) [%] | cleaved PARP positive nuclei fraction (COLO829) [%] | cleaved PARP positive nuclei fraction (G361) [%] | cleaved PARP positive nuclei fraction (IPC-298) [%] | cleaved PARP positive nuclei fraction (IST-MEL1) [%] | cleaved PARP positive nuclei fraction (LB2518-MEL) [%] | cleaved PARP positive nuclei fraction (LOXIMVI) [%]
4 | CN(c1ncccc1CNc1nc(Nc2ccc3c(c2)CC(=O)N3)ncc1C(F)(F)F)S(C)(=O)=O + Oc1nc(-c2ccc(C(F)(F)F)cc2)nc2c1CSCC2 [XAV939] (first compound 0.08 µM, partner dose 2 µM) | 136 | 66.3 | 78.8 | 89.5 | 45.8 | 169 | 68.3 | 51.1
5 | NC1(c2ccc(-c3nc4ccn5c(=O)[nH]nc5c4cc3-c3ccccc3)cc2)CCC1 + Cn1cc(/C=C2\C(=O)Nc3cccnc32)c2ccccc21 [GW441756] (first compound 0.4 µM, partner dose 0.4 µM) | 96.6 | 13.6 | 59.2 | 175 | 98.7 | 76.2 | 71.9 | 184
